Measured data: PubChem BioAssay AID1224830 (NIAID, 2016)

Assay: 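Host factors that control LPS-induced TNF expression in human macrophages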 (primary screen)
System: human THP-1 monocytic leukaemia cells, TNF dual-luciferase reporter clone, PMA-differentiated to macrophage-like cells
Reagents: siRNA pool against human genes, 50 nM
Duration: LPS for 4 h, given about 3 days after siRNA transfection
Challenge: bacterial LPS (TLR4 ligand), 10 ng/ml
Measured: 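TNF firefly reporter luminescence divided by renilla, normalised to the plate median, then turned into a robust z-score for each replicate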
Scale: TNF reporter robust z-score: higher = stronger TNF reporter response to LPS
Active means: 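a well is active when its z-score exceeds 2.8 or falls below -1.5; control wells carry no call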
This is one part, drawn at random, of about 18,000 reagents tested. About 2,900 of all reagents (16%) were called active. 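Calls are made per well; low scores hint the gene aids the LPS response, high scores that it dampens it.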 Repeated entries: four replicate wells of each siRNA pool.

The opening 2 records, ahead of the listing:
| gene | TNF reporter robust z-score | outcome |
| --- | --- | --- |
| MT1B (metallothionein 1B) | -0.31 | inactive |
| MT1B (metallothionein 1B) | -0.75 | inactive |

Main list, from the first entry:
| gene | TNF reporter robust z-score | outcome |
| --- | --- | --- |
| MT1B (metallothionein 1B) | -0.31 | inactive |
| MT1B (metallothionein 1B) | -0.75 | inactive |
| MT1B (metallothionein 1B) | -0.92 | inactive |
| MT1B (metallothionein 1B) | 0.38 | inactive |
| USP19 (ubiquitin specific peptidase 19) | 0.57 | inactive |
| USP19 (ubiquitin specific peptidase 19) | 0.14 | inactive |
| USP19 (ubiquitin specific peptidase 19) | -0.22 | inactive |
| USP19 (ubiquitin specific peptidase 19) | -0.49 | inactive |
| ARHGDIA (Rho GDP dissociation inhibitor alpha) | -0.15 | inactive |
| ARHGDIA (Rho GDP dissociation inhibitor alpha) | 1.16 | inactive |
| ARHGDIA (Rho GDP dissociation inhibitor alpha) | 0.37 | inactive |
| ARHGDIA (Rho GDP dissociation inhibitor alpha) | 0.19 | inactive |
| RNASEK (ribonuclease K) | 0.94 | inactive |
| RNASEK (ribonuclease K) | 0.43 | inactive |
| RNASEK (ribonuclease K) | 0.78 | inactive |
| RNASEK (ribonuclease K) | 1.09 | inactive |
| GABRP (gamma-aminobutyric acid type A receptor subunit pi) | 0.33 | inactive |
| GABRP (gamma-aminobutyric acid type A receptor subunit pi) | 0.21 | inactive |
| GABRP (gamma-aminobutyric acid type A receptor subunit pi) | 0.37 | inactive |
| GABRP (gamma-aminobutyric acid type A receptor subunit pi) | 3.08 | active |
| PABIR2 (PABIR family member 2) | -1.18 | inactive |
| PABIR2 (PABIR family member 2) | -1.42 | inactive |
| PABIR2 (PABIR family member 2) | -1.09 | inactive |
| PABIR2 (PABIR family member 2) | -1.15 | inactive |
| PDP1 (pyruvate dehydrogenase phosphatase catalytic subunit 1) | 0.26 | inactive |
| PDP1 (pyruvate dehydrogenase phosphatase catalytic subunit 1) | -0.74 | inactive |
| PDP1 (pyruvate dehydrogenase phosphatase catalytic subunit 1) | 1.05 | inactive |
| PDP1 (pyruvate dehydrogenase phosphatase catalytic subunit 1) | 2.4 | inactive |
| ZNF750 (zinc finger protein 750) | -2.1 | active |
| ZNF750 (zinc finger protein 750) | -1.14 | inactive |
| ZNF750 (zinc finger protein 750) | -1.58 | active |
| ZNF750 (zinc finger protein 750) | -1.44 | inactive |
| SLC35F5 | 0.48 | inactive |
| SLC35F5 | 2.11 | inactive |
| SLC35F5 | 3.55 | active |
| SLC35F5 | 2.47 | inactive |
| PHACTR3 (phosphatase and actin regulator 3) | -0.21 | inactive |
| PHACTR3 (phosphatase and actin regulator 3) | -0.55 | inactive |
| PHACTR3 (phosphatase and actin regulator 3) | -1.18 | inactive |
| AIF1L (allograft inflammatory factor 1 like) | 0.21 | inactive |
| AIF1L (allograft inflammatory factor 1 like) | 0.73 | inactive |
| AIF1L (allograft inflammatory factor 1 like) | 1.17 | inactive |
| AIF1L (allograft inflammatory factor 1 like) | 0.51 | inactive |
| GAB2 (GRB2 associated binding protein 2) | -1.41 | inactive |
| GAB2 (GRB2 associated binding protein 2) | -0.64 | inactive |
| GAB2 (GRB2 associated binding protein 2) | -1.02 | inactive |
| GAB2 (GRB2 associated binding protein 2) | -1.38 | inactive |
| HMGA1 (high mobility group AT-hook 1) | -1.27 | inactive |
| HMGA1 (high mobility group AT-hook 1) | 0.33 | inactive |
| HMGA1 (high mobility group AT-hook 1) | 0.52 | inactive |
| HMGA1 (high mobility group AT-hook 1) | -0.62 | inactive |
| GADD45GIP1 (GADD45G interacting protein 1) | 0.43 | inactive |
| GADD45GIP1 (GADD45G interacting protein 1) | 1.7 | inactive |
| GADD45GIP1 (GADD45G interacting protein 1) | 1.22 | inactive |
| GADD45GIP1 (GADD45G interacting protein 1) | 1.17 | inactive |
| CSHL1 (chorionic somatomammotropin hormone like 1) | -1.29 | inactive |
| CSHL1 (chorionic somatomammotropin hormone like 1) | -1.17 | inactive |
| CSHL1 (chorionic somatomammotropin hormone like 1) | -1.36 | inactive |
| CSHL1 (chorionic somatomammotropin hormone like 1) | -1.1 | inactive |
| TPTE2 | -0.27 | inactive |
| TPTE2 | 0.27 | inactive |
| TPTE2 | -0.44 | inactive |
| TPTE2 | 1.29 | inactive |
| GRIN1 (glutamate ionotropic receptor NMDA type subunit 1) | 1.66 | inactive |
| GRIN1 (glutamate ionotropic receptor NMDA type subunit 1) | 0.33 | inactive |
| GRIN1 (glutamate ionotropic receptor NMDA type subunit 1) | 0.58 | inactive |
| GRIN1 (glutamate ionotropic receptor NMDA type subunit 1) | 0.34 | inactive |
| TOR1A (torsin family 1 member A) | -0.54 | inactive |
| TOR1A (torsin family 1 member A) | 2.06 | inactive |
| TOR1A (torsin family 1 member A) | 0.27 | inactive |
| TOR1A (torsin family 1 member A) | -0.15 | inactive |
| PFAS (phosphoribosylformylglycinamidine synthase) | -1.23 | inactive |
| PFAS (phosphoribosylformylglycinamidine synthase) | 0.49 | inactive |
| PFAS (phosphoribosylformylglycinamidine synthase) | 0.17 | inactive |
| PFAS (phosphoribosylformylglycinamidine synthase) | 0.57 | inactive |
| CLCN1 (chloride voltage-gated channel 1) | 1.2 | inactive |
| CLCN1 (chloride voltage-gated channel 1) | 3.39 | active |
| CLCN1 (chloride voltage-gated channel 1) | 3.02 | active |
| CLCN1 (chloride voltage-gated channel 1) | 2.23 | inactive |
| LY9 (lymphocyte antigen 9) | 3.5 | active |
| LY9 (lymphocyte antigen 9) | 2.51 | inactive |
| LY9 (lymphocyte antigen 9) | -0.18 | inactive |
| LY9 (lymphocyte antigen 9) | 0.33 | inactive |
| CYTH1 (cytohesin 1) | -0.6 | inactive |
| CYTH1 (cytohesin 1) | -0.86 | inactive |
| CYTH1 (cytohesin 1) | -1.18 | inactive |
| CYTH1 (cytohesin 1) | -1.08 | inactive |
| TRIM5 (tripartite motif containing 5) | 1.03 | inactive |
| TRIM5 (tripartite motif containing 5) | 1.02 | inactive |
| TRIM5 (tripartite motif containing 5) | 0.49 | inactive |
| TRIM5 (tripartite motif containing 5) | 0.59 | inactive |
| RTP5 (receptor transporter protein 5 (putative)) | -0.97 | inactive |
| RTP5 (receptor transporter protein 5 (putative)) | -1.07 | inactive |
| RTP5 (receptor transporter protein 5 (putative)) | -1.37 | inactive |
| RTP5 (receptor transporter protein 5 (putative)) | -0.96 | inactive |
| TUBGCP5 (tubulin gamma complex component 5) | 0.24 | inactive |
| TUBGCP5 (tubulin gamma complex component 5) | 0.49 | inactive |
| TUBGCP5 (tubulin gamma complex component 5) | -0.54 | inactive |
| TUBGCP5 (tubulin gamma complex component 5) | -0.16 | inactive |
| WNT9B (Wnt family member 9B) | -0.86 | inactive |
| WNT9B (Wnt family member 9B) | 0.13 | inactive |
| WNT9B (Wnt family member 9B) | 0.08 | inactive |
| WNT9B (Wnt family member 9B) | 1.24 | inactive |
| WFDC3 (WAP four-disulfide core domain 3) | 1.01 | inactive |
| WFDC3 (WAP four-disulfide core domain 3) | 1.67 | inactive |
| WFDC3 (WAP four-disulfide core domain 3) | 0.98 | inactive |
| WFDC3 (WAP four-disulfide core domain 3) | 1.96 | inactive |
| DCX (doublecortin) | -0.07 | inactive |
| DCX (doublecortin) | -0.24 | inactive |
| DCX (doublecortin) | -0.32 | inactive |
| DCX (doublecortin) | 3.99 | active |
| GLIS1 (GLIS family zinc finger 1) | 1.46 | inactive |
| GLIS1 (GLIS family zinc finger 1) | 1.03 | inactive |
| GLIS1 (GLIS family zinc finger 1) | -0.8 | inactive |
| GLIS1 (GLIS family zinc finger 1) | 0.12 | inactive |
| JPH3 (junctophilin 3) | 0.53 | inactive |
| JPH3 (junctophilin 3) | 0.49 | inactive |
| JPH3 (junctophilin 3) | 1.13 | inactive |
| JPH3 (junctophilin 3) | 0.15 | inactive |
| NUDT15 (nudix hydrolase 15) | 1.1 | inactive |
| NUDT15 (nudix hydrolase 15) | 4.48 | active |
| NUDT15 (nudix hydrolase 15) | 2.02 | inactive |
| NUDT15 (nudix hydrolase 15) | -0.42 | inactive |
| TRH (thyrotropin releasing hormone) | -1.44 | inactive |
| TRH (thyrotropin releasing hormone) | -1.27 | inactive |
| TRH (thyrotropin releasing hormone) | -1.51 | active |
| TRH (thyrotropin releasing hormone) | -1.46 | inactive |
| PPP2R5E (protein phosphatase 2 regulatory subunit B'epsilon) | -1.34 | inactive |
| PPP2R5E (protein phosphatase 2 regulatory subunit B'epsilon) | -1.97 | active |
| PPP2R5E (protein phosphatase 2 regulatory subunit B'epsilon) | -1.88 | active |
| PPP2R5E (protein phosphatase 2 regulatory subunit B'epsilon) | -1.77 | active |
| IL38 (interleukin 38) | -1.64 | active |
| IL38 (interleukin 38) | -0.97 | inactive |
| IL38 (interleukin 38) | -0.28 | inactive |
| IL38 (interleukin 38) | 0.08 | inactive |
| STARD5 (StAR related lipid transfer domain containing 5) | 1.93 | inactive |
| STARD5 (StAR related lipid transfer domain containing 5) | 6.08 | active |
| STARD5 (StAR related lipid transfer domain containing 5) | 0.57 | inactive |
| STARD5 (StAR related lipid transfer domain containing 5) | 0.97 | inactive |
| GTPBP6 (GTP binding protein 6) | -0.54 | inactive |
| GTPBP6 (GTP binding protein 6) | -0.23 | inactive |
| GTPBP6 (GTP binding protein 6) | -0.78 | inactive |
| GTPBP6 (GTP binding protein 6) | -1.26 | inactive |
